Source: PubChem BioAssay AID651644 (National Center for Advancing Translational Sciences (NCATS), 2012)
The campaign covered roughly 360,000 compounds. About 750 (0.21%) were called active. The source calls these results inconclusive, neither active nor inactive. The call rests on the fitted dose curve; in most records, active means well fitted falling curve with a large enough effect; inconclusive means small, poorly fitted or top-dose-only effect; inactive means no such curve, though single readings can be large or run the other way.

Assay: qHTS Assay for Inhibitors of the HIV-1 protein Vpr; further: nearly all actives have a fitted effect of over 50% in size
Details: S. pombe RE007 Vpr strain, BacTiter-Glo ATP luminescence, 24 h
Potency means the concentration at half of the fitted maximal effect.

SMILES | Potency
COc1ccc(Cl)cc1C(=O)NCC1(N2CCOCC2)CCCCC1 | inconclusive: 22.4 µM
